Consider two substances from article PMC7615141.

Chains of the proteins cited; added tags and fusions are not shown. Lines headed by an entry give the natural chain unless they say otherwise; changes in a name come on top. Residues count along the entry.
UniProt P01033, residues 24-207: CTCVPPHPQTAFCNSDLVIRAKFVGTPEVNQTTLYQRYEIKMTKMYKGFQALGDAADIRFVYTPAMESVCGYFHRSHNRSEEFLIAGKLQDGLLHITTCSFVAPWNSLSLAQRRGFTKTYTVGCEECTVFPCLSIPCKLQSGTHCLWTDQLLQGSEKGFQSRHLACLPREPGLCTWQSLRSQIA
UniProt Q9UKP4: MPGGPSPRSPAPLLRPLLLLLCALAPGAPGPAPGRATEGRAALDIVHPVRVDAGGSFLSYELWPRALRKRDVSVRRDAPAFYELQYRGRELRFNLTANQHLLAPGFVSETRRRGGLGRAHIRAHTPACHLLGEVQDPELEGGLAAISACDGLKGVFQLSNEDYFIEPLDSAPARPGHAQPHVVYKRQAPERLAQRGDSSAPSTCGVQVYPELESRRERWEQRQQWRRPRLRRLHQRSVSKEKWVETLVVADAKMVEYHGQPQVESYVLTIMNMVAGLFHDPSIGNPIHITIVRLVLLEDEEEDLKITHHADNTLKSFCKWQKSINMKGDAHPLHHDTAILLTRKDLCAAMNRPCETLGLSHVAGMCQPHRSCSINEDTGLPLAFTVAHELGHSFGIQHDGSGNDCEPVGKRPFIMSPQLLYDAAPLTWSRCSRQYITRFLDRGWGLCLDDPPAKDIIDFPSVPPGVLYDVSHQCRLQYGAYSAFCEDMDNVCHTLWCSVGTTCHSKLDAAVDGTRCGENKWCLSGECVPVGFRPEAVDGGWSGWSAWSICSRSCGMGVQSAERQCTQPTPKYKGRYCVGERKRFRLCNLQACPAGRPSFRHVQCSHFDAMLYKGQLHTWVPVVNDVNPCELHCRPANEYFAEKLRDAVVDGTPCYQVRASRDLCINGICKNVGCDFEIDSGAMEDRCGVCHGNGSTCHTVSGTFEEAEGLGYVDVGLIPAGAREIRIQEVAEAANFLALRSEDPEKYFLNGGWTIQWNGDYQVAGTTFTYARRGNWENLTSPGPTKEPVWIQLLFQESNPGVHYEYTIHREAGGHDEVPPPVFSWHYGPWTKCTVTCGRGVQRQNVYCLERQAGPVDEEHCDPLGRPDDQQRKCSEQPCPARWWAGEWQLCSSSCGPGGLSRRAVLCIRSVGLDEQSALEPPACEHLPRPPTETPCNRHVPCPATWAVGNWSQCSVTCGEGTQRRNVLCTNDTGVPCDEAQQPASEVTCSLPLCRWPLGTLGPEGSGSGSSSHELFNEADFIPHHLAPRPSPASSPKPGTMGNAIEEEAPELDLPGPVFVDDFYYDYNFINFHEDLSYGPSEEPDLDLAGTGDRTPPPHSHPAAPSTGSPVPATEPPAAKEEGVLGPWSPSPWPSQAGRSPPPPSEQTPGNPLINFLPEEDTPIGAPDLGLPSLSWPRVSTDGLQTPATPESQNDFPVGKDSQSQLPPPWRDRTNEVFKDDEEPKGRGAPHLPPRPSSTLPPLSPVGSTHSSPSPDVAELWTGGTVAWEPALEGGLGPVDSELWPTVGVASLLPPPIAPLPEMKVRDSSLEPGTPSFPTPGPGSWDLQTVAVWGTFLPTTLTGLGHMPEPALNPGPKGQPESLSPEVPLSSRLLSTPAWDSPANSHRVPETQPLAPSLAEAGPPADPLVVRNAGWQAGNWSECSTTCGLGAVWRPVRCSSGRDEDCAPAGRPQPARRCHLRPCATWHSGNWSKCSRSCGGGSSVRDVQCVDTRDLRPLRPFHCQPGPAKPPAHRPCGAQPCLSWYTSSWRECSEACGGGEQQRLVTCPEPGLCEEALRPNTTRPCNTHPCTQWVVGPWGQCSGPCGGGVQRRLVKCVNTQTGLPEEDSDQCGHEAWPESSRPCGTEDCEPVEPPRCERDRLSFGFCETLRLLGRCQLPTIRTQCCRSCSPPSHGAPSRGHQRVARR

Assay [1] has as its target TIMP-1-HA (tissue inhibitor of metalloproteinases 1 with HA tag) (human) (UniProt P01033). Kind of assay: co-IP; ADAMTS7-V5 constructs and TIMP-1-HA co-expressed in HEK293 cells; protein lysates; TIMP-1-HA precipitated by an anti-HA antibody, ADAMTS-7 constructs detected by Western blot. In general terms: A western blot detects proteins with antibodies after separation by electrophoresis.

Assay [2] has the same target. Kind of assay: co-IP; TIMP-1-HA precipitated from the supernatant of HEK293 cells (Suppl. Fig. S4).
The target is the same in assay [3]. Kind of assay: AlphaScreen or HTRF; the pair ADAMTS-7-FLAG and TIMP-1-HA in the competition experiment (lysates; 0 ng untagged TIMP-1 as reference); 665/620 nm ratio; seven independent experiments. A general note: In Alpha technology, singlet oxygen from a donor bead excites a nearby acceptor bead.

Results are given in words; binding and its absence hold for the method and conditions named. Binding calls can cover weak binding; strength is not graded here. For part of these data: Binding seen in cells or lysates may run through a third protein.

As for “full-length ADAMTS-7 with a C-terminal V5-tag (ADAMTS7-V5) (from UniProt Q9UKP4) (enzyme)”, the binding result in assay [1] and in assay [2] was “binds” in each case. Regarding “ADAMTS-7-FLAG (from UniProt Q9UKP4) (enzyme)”, the binding result in assay [3] is listed as “binds”.
